# Measurements published in patent US20190209704A1 (IGENICA BIOTHERAPEUTICS, INC., priority 2014, published 2019).
# Assay: general procedure: Fmoc solid-phase peptide synthesis; Fmoc-phenylalanine-2-chlorotrityl resin (0.6 mmol/gram); HATU / N-methyl morpholine
# Conditions: conjugation step
substance,measurement,value
CPM(C6)-Val-Ala-PAB-MMAE,conjugation yield,15%
"(S)-2-((2R,3R)-3-((S)-1-((3R,4S,5S)-4-((S)-2-((S)-2-(6-(3-(4-cyanophenoxy)-2,5-dioxo-2,5-dihydro-1H-pyrrol-1-yl)-N-methylhexanamido)-3-methylbutanamido)-N,3-dimethylbutanamido)-3-methoxy-5-methylheptanoyl)pyrrolidin-2-yl)-3-methoxy-2-methylpropanamido)-3-phenylpropanoic acid",conjugation yield,63%
